# Measured values from PubChem BioAssay AID2685 (National Center for Advancing Translational Sciences (NCATS), 2010).
# The list shows a part of the results. The main result of the screen is listed elsewhere. These columns were measured beside it and carry no call. Most of these compounds were active or inconclusive in the main read-out, so they are no random draw. The note in brackets gives the kind of curve behind each potency; many fits are weak.
# Experiment: qHTS Assay for Lipid Storage Modulators in Drosophila S3 Cells;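 for cell number change: cells counted by Cell Tracker Red CMTPX staining in the red channel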
# Conditions: BODIPY lipid droplet fluorescence, 18-24 h; for cell number change: measured here: cell count max response, cells fed with added oleic acid
# Procedure, shortened: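 Drosophila S3 cells got compounds at several concentrations plus oleic acid (400 uM solution). Laser-scanning cytometry with 488 nm excitation read lipid droplets at 500-530 nm and cells at 575-640 nm. Percent activity was relative to 20 uM Triacsin C.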
# [1] = measured here: lipid fluorescence (Fed channel) AC50, cells fed with added oleic acid
# [2] = measured here: cell number channel AC50, cells fed with added oleic acid
SMILES,AC50 [1],cell number change [%],AC50 [2]
CCCNC(=O)CN1C(=O)NC(Cc2c[nH]c3ccccc23)C1=O (stereo unspecified),"18.4 µM [falling, single point]",–,–
Nc1cc(C(=O)OCC(=O)NNC(=O)c2cccs2)ccc1Cl,"0.00461 µM [rising, full curve, poor fit]",11.3,–
CCOCCCNC(=O)c1ccc2c(=O)n(Cc3ccc(OC)cc3)c(=O)[nH]c2c1,"0.00411 µM [rising, full curve, poor fit]",–,–
O=C(C[N+]12CC[N+](CC(=O)c3ccc(F)cc3)(CC1)CC2)c1ccc(F)cc1,–,48.2,"29.1 µM [rising, single point]"
COc1ccc(-c2nn(-c3ccccc3)cc2/C=N/Nc2ccccn2)cc1,"29.1 µM [falling, single point]",-25.2,–
CC(=O)c1cccc(NC(=O)CN2CCN(S(=O)(=O)/C=C/c3ccccc3)CC2)c1,"0.82 µM [rising, full curve, poor fit]",-0.389,–
COc1ccc(CNC(=O)c2ccc(C)o2)cc1,"0.092 µM [rising, full curve, poor fit]",7.11,"0.13 µM [rising, full curve, poor fit]"
COc1ccc(NC(=O)Cn2c(=O)n(-c3ccc(CC(=O)NCc4ccco4)cc3)c(=O)c3ccccc32)cc1,–,10.1,"0.651 µM [rising, single point]"
COc1ccccc1CNC(=O)COC(=O)CSc1ccc(F)cc1,–,-74.7,"25.9 µM [falling, single point]"
CCN1CCN(C(=O)NC(c2ccc(C)c(F)c2)C(Cl)Cl)CC1 (stereo unspecified),–,-2.46,–
Cc1nn(-c2ccccc2)c(C)c1/C=N/NC(=O)CSc1nc2ccccc2c(=O)n1-c1ccc(Br)cc1,–,–,"0.517 µM [rising, single point]"
COc1ccc(C(=O)Nc2cc(C(F)(F)F)ccc2Cl)cc1OC,"0.00517 µM [rising, full curve, poor fit]",-6.87,–
COCCNc1ncnc2c1cnn2Cc1ccc(Cl)cc1,"0.731 µM [rising, single point]",–,–
O=C(NCCC1CCCCN1S(=O)(=O)c1ccc(Cl)cc1)C(=O)NCc1ccco1 (stereo unspecified),–,-34.9,"9.2 µM [falling, partial curve]"
CC(=O)NC1C(Oc2ccccc2C)OC2COC(c3ccco3)OC2C1O (stereo unspecified),"20.6 µM [falling, single point]",-55.4,"5.8 µM [falling, full curve]"
CC(C)c1ccc(CNNC(=O)c2ccccc2)cc1,"29.1 µM [falling, single point]",3.62,–
O=C(COC(=O)c1ccc2ccccc2c1O)Nc1ccccc1,–,39.4,"18.4 µM [rising, single point]"
COc1cc(C2CC(=O)N3CN(Cc4ccccc4)CSC3=C2C#N)ccc1OCc1ccccc1 (stereo unspecified),"0.164 µM [rising, full curve, poor fit]",13.9,–
O=C(NCCC1CCCCN1S(=O)(=O)c1ccccc1)C(=O)NCCN1CCOCC1 (stereo unspecified),"0.0731 µM [falling, full curve, poor fit]",-12.3,–

# Sorted by molecular weight (rising): some entries from above.
SMILES,AC50 [1],cell number change [%],AC50 [2]
COc1ccc(CNC(=O)c2ccc(C)o2)cc1,"0.092 µM [rising, full curve, poor fit]",7.11,"0.13 µM [rising, full curve, poor fit]"
COCCNc1ncnc2c1cnn2Cc1ccc(Cl)cc1,"0.731 µM [rising, single point]",–,–
O=C(COC(=O)c1ccc2ccccc2c1O)Nc1ccccc1,–,39.4,"18.4 µM [rising, single point]"
Nc1cc(C(=O)OCC(=O)NNC(=O)c2cccs2)ccc1Cl,"0.00461 µM [rising, full curve, poor fit]",11.3,–
COc1ccc(C(=O)Nc2cc(C(F)(F)F)ccc2Cl)cc1OC,"0.00517 µM [rising, full curve, poor fit]",-6.87,–
O=C(C[N+]12CC[N+](CC(=O)c3ccc(F)cc3)(CC1)CC2)c1ccc(F)cc1,–,48.2,"29.1 µM [rising, single point]"
CC(=O)NC1C(Oc2ccccc2C)OC2COC(c3ccco3)OC2C1O (stereo unspecified),"20.6 µM [falling, single point]",-55.4,"5.8 µM [falling, full curve]"
O=C(NCCC1CCCCN1S(=O)(=O)c1ccccc1)C(=O)NCCN1CCOCC1 (stereo unspecified),"0.0731 µM [falling, full curve, poor fit]",-12.3,–
COc1ccc(NC(=O)Cn2c(=O)n(-c3ccc(CC(=O)NCc4ccco4)cc3)c(=O)c3ccccc32)cc1,–,10.1,"0.651 µM [rising, single point]"

# (continued)

SMILES,AC50 [1],cell number change [%],AC50 [2]
Cc1ccc(-n2c(SCC(=O)N(C)C3CCS(=O)(=O)C3)nc3ccccc3c2=O)cc1 (stereo unspecified),–,41.1,"8.2 µM [rising, partial curve, poor fit]"
COc1ccc(-c2nnc(C3CCN(S(=O)(=O)c4ccccc4)CC3)o2)cc1,"13 µM [falling, single point]",-1.44,–
COc1ccc(S(=O)(=O)NC2CC2)cc1C(=O)N1CCOCC1,"0.326 µM [rising, partial curve, poor fit]",24.5,–
O=C(c1cccnc1NCc1ccccc1)N1CCOCC1,"6.51 µM [falling, single point]",-10.2,"6.51 µM [falling, single point]"
Cc1cc(C)c(C#N)c(OCc2ccc(Cl)nc2)n1,–,22,–
COc1ccc(CN(C)CC(O)COc2ccc(C(=O)c3ccccc3)cc2)c(OC)c1OC (stereo unspecified),"23.1 µM [falling, partial curve]",22.6,"0.00651 µM [rising, full curve, poor fit]"
Clc1ccc(N=c2ssnc2Cl)cc1,"0.731 µM [falling, full curve]",–,"0.164 µM [falling, partial curve]"
CCCc1cc(=O)[nH]c(SCC(=O)N2N=C(c3ccc(Cl)cc3)CC2c2ccco2)n1 (stereo unspecified),"0.517 µM [falling, full curve, poor fit]",-17.8,–
CCCNC(=S)N1CCC(n2cnc3ccccc32)CC1,–,-14.5,–
CCCCCCOc1ccc(C(CC(=O)O)C(N)=O)cc1 (stereo unspecified),–,1.84,–
COC(=O)c1ccccc1NC(=O)NCCc1ccc(OC)c(OC)c1,"4.11 µM [falling, partial curve]",-14,–
COc1ccc(-n2c(O)c(C=Nc3ccccc3)c3ccccc3c2=O)cc1OC,"29.1 µM [falling, single point]",-44.3,"16.4 µM [falling, single point]"
O=C(Cn1nnc2ccccc2c1=O)N[C@@H](Cc1ccccc1)C(=O)O,–,27.1,–
COc1ccc(C(=O)OC(C)C(=O)NC2CCCC2)cc1S(=O)(=O)N1CCOCC1 (stereo unspecified),"0.0517 µM [rising, full curve]",-3.24,–
CN(Cc1c(F)cccc1Cl)S(=O)(=O)c1cccs1,"2.51 µM [falling, full curve]",–,–
CCOc1ccc(-c2n[nH]c(C)c2-c2ccccc2OC)c(O)c1,"2.31 µM [falling, full curve]",-36.9,"4.11 µM [falling, full curve, poor fit]"
O=C(Nc1nccs1)c1cccc(NC(=O)C2CC2)c1,"2.31 µM [rising, partial curve]",–,"2.06 µM [rising, partial curve]"
CC(C)Oc1ccc(C(=O)Nc2nnc(C3=COCCO3)o2)cc1,"6.51 µM [falling, single point]",3.83,–
NC(=O)c1nsc(C(=O)N(c2cccc(F)c2)C(C(=O)NC2CCCC2)c2ccco2)c1N (stereo unspecified),–,2.08,–
